The entries are a selection whose mix differs from that of the whole data set. The calls were merged from several studies; some rest on single wells. Some of the results follow.
Tests used:
Details in all cases: stereoisomer not certain
[1] = tested on: T1, OR4K3
T1 sequence (whole entry): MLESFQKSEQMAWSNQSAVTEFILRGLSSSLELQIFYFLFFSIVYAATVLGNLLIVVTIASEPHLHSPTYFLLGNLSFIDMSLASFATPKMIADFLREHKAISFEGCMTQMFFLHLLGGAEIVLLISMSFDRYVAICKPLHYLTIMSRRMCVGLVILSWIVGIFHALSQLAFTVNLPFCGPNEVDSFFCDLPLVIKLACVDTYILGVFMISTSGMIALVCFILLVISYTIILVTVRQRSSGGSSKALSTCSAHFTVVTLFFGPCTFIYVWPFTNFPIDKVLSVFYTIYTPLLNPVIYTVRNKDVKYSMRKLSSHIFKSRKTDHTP
Method in brief: (§1)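 Values were gathered from published papers (main text and supplementary material), with extra details requested from the original authors when needed, and checked for typos and inconsistencies. Each receptor–molecule pair is called responsive (active) if the original authors judged the measured signal statistically different from baseline, and non-responsive (inactive) otherwise. Assay methods varied by source, often transient mammalian cell-line luciferase assays. Recorded details include cell line, G-protein, co-transfected protein and tags.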

[2] = target: T2, OR4K5 (Homo sapiens) (UniProt Q8NGD3)
T2 sequence (whole entry): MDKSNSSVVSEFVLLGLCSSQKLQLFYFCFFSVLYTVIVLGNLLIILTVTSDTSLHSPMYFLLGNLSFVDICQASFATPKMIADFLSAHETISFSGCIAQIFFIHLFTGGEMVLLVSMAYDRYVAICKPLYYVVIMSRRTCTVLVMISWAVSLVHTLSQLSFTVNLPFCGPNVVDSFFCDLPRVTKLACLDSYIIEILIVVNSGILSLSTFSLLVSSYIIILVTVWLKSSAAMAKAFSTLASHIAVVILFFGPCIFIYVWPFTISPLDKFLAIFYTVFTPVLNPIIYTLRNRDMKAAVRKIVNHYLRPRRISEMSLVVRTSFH
Method in brief: as §1

[3] = tested on: T3, OR4KF
T3 sequence (whole entry): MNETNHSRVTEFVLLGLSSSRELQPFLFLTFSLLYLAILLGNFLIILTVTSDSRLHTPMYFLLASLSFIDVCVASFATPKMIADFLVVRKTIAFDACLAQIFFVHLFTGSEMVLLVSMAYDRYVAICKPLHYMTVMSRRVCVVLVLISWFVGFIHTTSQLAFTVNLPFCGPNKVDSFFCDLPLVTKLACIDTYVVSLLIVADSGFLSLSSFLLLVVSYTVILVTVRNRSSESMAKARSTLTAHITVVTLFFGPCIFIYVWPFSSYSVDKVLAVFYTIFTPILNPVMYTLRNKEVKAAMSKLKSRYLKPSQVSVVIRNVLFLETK
Method in brief: as §1

[4] = tested on: T4, OR4KH
T4 sequence (whole entry): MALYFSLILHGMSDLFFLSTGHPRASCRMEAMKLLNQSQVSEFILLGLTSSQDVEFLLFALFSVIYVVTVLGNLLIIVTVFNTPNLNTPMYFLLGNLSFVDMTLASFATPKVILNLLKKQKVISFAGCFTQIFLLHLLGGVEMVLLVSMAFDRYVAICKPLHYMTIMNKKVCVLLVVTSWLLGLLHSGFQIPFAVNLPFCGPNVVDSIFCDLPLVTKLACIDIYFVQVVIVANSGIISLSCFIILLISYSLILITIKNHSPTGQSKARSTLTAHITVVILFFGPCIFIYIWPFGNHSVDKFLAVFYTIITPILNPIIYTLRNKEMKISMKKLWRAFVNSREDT
Method in brief: as §1

[5] = tested on: T5, OR4L1
T5 sequence (whole entry): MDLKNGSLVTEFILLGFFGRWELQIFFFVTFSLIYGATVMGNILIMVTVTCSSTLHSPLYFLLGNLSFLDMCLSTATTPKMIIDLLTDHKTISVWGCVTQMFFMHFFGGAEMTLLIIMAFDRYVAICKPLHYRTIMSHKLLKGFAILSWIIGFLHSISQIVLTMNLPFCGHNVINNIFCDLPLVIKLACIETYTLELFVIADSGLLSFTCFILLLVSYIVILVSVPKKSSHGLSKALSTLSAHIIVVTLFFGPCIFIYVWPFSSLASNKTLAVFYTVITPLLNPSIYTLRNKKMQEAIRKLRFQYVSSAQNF
Method in brief: as §1

[6] = target: T6, OR4M1 (Homo sapiens) (UniProt Q8NGD0)
T6 sequence (whole entry): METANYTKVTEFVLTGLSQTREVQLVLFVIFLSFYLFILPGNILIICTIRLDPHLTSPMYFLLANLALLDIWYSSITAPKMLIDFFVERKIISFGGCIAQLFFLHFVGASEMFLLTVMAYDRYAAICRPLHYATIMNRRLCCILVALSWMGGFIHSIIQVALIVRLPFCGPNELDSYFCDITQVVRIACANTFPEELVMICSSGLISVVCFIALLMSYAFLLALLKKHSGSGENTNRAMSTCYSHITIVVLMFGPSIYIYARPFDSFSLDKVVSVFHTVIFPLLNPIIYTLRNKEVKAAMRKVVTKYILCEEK
Method in brief: as §1

[7] = target: T7, OR4N2 (Homo sapiens) (UniProt Q8NGD1)
T7 sequence (whole entry): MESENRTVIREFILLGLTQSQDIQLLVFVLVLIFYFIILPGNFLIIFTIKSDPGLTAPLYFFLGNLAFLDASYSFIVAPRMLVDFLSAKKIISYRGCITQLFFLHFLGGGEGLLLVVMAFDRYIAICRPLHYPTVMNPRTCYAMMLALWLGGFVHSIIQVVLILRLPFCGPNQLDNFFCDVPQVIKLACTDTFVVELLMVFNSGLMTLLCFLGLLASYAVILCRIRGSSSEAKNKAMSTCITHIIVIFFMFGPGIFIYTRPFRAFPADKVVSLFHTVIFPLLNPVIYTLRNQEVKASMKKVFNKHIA
Method in brief: as §1

[8] = target: T8, OR4N4 (Homo sapiens) (UniProt Q8N0Y3)
T8 sequence (whole entry): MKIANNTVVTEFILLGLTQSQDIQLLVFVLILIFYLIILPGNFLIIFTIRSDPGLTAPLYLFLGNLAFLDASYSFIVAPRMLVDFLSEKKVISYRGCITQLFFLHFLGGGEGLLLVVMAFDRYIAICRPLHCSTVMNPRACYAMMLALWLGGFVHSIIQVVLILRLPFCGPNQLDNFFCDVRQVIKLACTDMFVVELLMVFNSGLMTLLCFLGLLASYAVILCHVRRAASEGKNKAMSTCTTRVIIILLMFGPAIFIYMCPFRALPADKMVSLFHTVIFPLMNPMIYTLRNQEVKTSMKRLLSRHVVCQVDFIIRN
Method in brief: as §1

[9] = target: T9, OR4N5 (Homo sapiens) (UniProt Q8IXE1)
T9 sequence (whole entry): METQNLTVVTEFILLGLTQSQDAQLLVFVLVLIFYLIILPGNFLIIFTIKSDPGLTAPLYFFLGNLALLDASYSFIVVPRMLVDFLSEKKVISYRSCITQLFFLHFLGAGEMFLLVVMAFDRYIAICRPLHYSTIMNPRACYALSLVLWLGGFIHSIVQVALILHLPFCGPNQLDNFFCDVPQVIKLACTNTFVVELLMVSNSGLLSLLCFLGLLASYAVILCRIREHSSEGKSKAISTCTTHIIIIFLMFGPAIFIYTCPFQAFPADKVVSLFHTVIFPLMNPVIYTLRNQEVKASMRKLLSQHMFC
Method in brief: as §1

[10] = tested on: T10, OR4P4
T10 sequence (whole entry): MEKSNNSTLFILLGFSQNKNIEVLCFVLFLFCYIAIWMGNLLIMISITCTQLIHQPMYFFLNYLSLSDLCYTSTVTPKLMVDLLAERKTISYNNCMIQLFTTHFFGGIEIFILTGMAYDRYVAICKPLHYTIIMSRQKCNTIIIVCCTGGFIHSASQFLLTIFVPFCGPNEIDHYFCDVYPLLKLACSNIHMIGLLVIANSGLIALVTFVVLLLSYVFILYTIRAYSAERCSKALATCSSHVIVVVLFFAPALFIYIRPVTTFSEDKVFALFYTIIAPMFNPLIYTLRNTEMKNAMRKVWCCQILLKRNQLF
Method in brief: as §1

[11] = tested on: T11, OR4P4; remark: listed apart in the source
T11 sequence (whole entry): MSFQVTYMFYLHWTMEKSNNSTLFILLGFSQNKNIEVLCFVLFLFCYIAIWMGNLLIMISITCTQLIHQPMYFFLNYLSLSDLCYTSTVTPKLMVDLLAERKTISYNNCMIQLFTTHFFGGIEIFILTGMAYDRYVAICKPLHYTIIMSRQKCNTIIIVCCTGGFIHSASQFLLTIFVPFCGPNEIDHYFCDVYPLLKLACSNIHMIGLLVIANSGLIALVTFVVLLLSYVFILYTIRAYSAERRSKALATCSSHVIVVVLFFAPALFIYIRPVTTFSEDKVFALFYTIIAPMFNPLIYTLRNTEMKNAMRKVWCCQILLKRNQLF
Method in brief: as §1

[12] = target: T12, OR4Q3 (Homo sapiens) (UniProt Q8NH05)
T12 sequence (whole entry): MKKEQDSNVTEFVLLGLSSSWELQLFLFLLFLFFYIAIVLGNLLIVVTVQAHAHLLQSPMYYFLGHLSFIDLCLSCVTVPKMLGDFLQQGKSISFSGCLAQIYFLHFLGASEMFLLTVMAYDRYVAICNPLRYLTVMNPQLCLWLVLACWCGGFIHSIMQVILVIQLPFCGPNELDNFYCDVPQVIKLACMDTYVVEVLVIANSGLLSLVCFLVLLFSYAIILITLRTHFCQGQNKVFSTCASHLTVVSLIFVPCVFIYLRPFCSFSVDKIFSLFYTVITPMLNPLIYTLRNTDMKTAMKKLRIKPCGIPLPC
Method in brief: as §1

[13] = target: T13, OR4S1 (Homo sapiens) (UniProt Q8NGB4)
T13 sequence (whole entry): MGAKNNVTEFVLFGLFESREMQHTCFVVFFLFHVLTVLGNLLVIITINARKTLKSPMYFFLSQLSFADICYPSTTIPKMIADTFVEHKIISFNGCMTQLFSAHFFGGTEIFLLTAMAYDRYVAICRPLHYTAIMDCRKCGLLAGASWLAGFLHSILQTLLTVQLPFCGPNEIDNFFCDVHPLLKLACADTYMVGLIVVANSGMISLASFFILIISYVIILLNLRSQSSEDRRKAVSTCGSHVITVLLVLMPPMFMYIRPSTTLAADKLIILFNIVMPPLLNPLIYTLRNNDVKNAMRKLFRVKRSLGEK
Method in brief: as §1

## CC(=O)C(C)=O
[1]
  odorant receptor agonist call: inactive
[2]
  odorant receptor agonist call: inactive
[3]
  odorant receptor agonist call: active
[4]
  odorant receptor agonist call: inactive
[5]
  odorant receptor agonist call: inactive
[6]
  odorant receptor agonist call: inactive
[7]
  odorant receptor agonist call: inactive
[8]
  odorant receptor agonist call: inactive
[9]
  odorant receptor agonist call: inactive
[10]
  odorant receptor agonist call: inactive
[11]
  odorant receptor agonist call: inactive
[12]
  odorant receptor agonist call: inactive
[13]
  odorant receptor agonist call: inactive

## CCC=CCCO
[1]
  odorant receptor agonist call: inactive
[2]
  odorant receptor agonist call: inactive
[3]
  odorant receptor agonist call: inactive
[4]
  odorant receptor agonist call: inactive
[5]
  odorant receptor agonist call: inactive
[6]
  odorant receptor agonist call: inactive
[7]
  odorant receptor agonist call: inactive
[8]
  odorant receptor agonist call: inactive
[9]
  odorant receptor agonist call: inactive
[10]
  odorant receptor agonist call: inactive
[11]
  odorant receptor agonist call: inactive
[12]
  odorant receptor agonist call: inactive
[13]
  odorant receptor agonist call: inactive

## CC1=NC(C)SC1C (configuration not stated)
[1]
  odorant receptor agonist call: inactive
[2]
  odorant receptor agonist call: inactive
[4]
  odorant receptor agonist call: inactive
[5]
  odorant receptor agonist call: inactive
[7]
  odorant receptor agonist call: inactive
[8]
  odorant receptor agonist call: inactive
[9]
  odorant receptor agonist call: inactive
[10]
  odorant receptor agonist call: inactive
[11]
  odorant receptor agonist call: inactive
[12]
  odorant receptor agonist call: inactive
[13]
  odorant receptor agonist call: inactive

## CCCCCCCC=O
[1]
  odorant receptor agonist call: inactive
[2]
  odorant receptor agonist call: inactive
[3]
  odorant receptor agonist call: inactive
[4]
  odorant receptor agonist call: inactive
[5]
  odorant receptor agonist call: inactive
[6]
  odorant receptor agonist call: inactive
[7]
  odorant receptor agonist call: inactive
[8]
  odorant receptor agonist call: inactive
[9]
  odorant receptor agonist call: inactive
[10]
  odorant receptor agonist call: inactive
[11]
  odorant receptor agonist call: inactive
[12]
  odorant receptor agonist call: inactive
[13]
  odorant receptor agonist call: inactive

## CC(C)(O)CCCC1=CCC(C=O)CC1 (configuration not stated)
[3]
  odorant receptor agonist call: inactive
[6]
  odorant receptor agonist call: inactive

## O=C1CCCCC1
[1]
  odorant receptor agonist call: inactive
[2]
  odorant receptor agonist call: inactive
[4]
  odorant receptor agonist call: inactive
[5]
  odorant receptor agonist call: inactive
[7]
  odorant receptor agonist call: inactive
[8]
  odorant receptor agonist call: inactive
[9]
  odorant receptor agonist call: inactive
[10]
  odorant receptor agonist call: inactive
[11]
  odorant receptor agonist call: inactive
[12]
  odorant receptor agonist call: inactive
[13]
  odorant receptor agonist call: inactive

## CCCCCC(C)=O
[1]
  odorant receptor agonist call: inactive
[2]
  odorant receptor agonist call: active
[4]
  odorant receptor agonist call: inactive
[5]
  odorant receptor agonist call: inactive
[7]
  odorant receptor agonist call: inactive
[8]
  odorant receptor agonist call: inactive
[9]
  odorant receptor agonist call: inactive
[10]
  odorant receptor agonist call: inactive
[11]
  odorant receptor agonist call: inactive
[12]
  odorant receptor agonist call: inactive
[13]
  odorant receptor agonist call: inactive

## CCC1(O)C2(C)CCC(C2)C1(C)C (configuration not stated)
[1]
  odorant receptor agonist call: inactive
[2]
  odorant receptor agonist call: inactive
[3]
  odorant receptor agonist call: inactive
[4]
  odorant receptor agonist call: inactive
[5]
  odorant receptor agonist call: inactive
[6]
  odorant receptor agonist call: inactive
[7]
  odorant receptor agonist call: inactive
[8]
  odorant receptor agonist call: inactive
[9]
  odorant receptor agonist call: inactive
[10]
  odorant receptor agonist call: inactive
[11]
  odorant receptor agonist call: inactive
[12]
  odorant receptor agonist call: inactive
[13]
  odorant receptor agonist call: inactive
